For one assay, the target named is T1, WT HA–TMEM230 (human) (UniProt Q96A57).
T1 sequence: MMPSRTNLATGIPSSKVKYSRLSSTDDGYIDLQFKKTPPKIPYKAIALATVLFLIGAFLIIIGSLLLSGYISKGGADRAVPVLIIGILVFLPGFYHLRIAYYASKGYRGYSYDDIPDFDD
Kind of assay: affinity purification with mass spectrometry; TMEM230 IPs from H9 TMEM230-/- iNeurons with or without lentiviral expression of WT and variant HA-TMEM230; 0.5% DDM extract; TMT-MS.

Chains of the proteins cited; added tags and fusions are not shown. Residues count along the entry.
UniProt Q9P0T7, residues 21-183: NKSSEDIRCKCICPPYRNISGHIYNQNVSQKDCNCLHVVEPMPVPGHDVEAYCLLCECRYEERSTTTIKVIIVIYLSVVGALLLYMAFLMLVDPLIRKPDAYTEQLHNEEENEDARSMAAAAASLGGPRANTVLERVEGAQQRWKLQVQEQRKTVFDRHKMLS

The target in the next assay is T2, HA-TMEM230(Y29C) (human) (UniProt Q96A57).
T2 sequence: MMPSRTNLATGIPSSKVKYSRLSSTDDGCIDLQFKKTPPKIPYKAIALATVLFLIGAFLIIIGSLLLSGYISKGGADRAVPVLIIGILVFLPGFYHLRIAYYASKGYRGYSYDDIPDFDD
Described as above.

Assay [1] concerns the target T3, Wild-type (WT) TMEM230 (human (endogenous in H9-derived iNeurons)) (UniProt Q96A57).
T3 sequence: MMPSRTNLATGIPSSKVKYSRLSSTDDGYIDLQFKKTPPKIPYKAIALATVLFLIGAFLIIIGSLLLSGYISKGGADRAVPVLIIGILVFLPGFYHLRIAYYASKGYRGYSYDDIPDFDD
Kind of assay: affinity purification with mass spectrometry; anti-TMEM230 immunocomplexes from WT H9 iNeurons against H9 TMEM230-/- iNeurons; 0.5% DDM extract; TMT-MS.

The target in another assay is TMEM9–HA (human) (UniProt Q9P0T7). Kind of assay: affinity purification with mass spectrometry; anti-HA IPs from TMEM9-/- iNeurons (day 21) with or without lentiviral expression of TMEM9-HA; 0.5% DDM extract; TMT-MS.

No constants are given. Whether binding was seen depends on the method and setting. In cells and extracts the contact can be indirect. These calls come from enrichment with a bait or labelling near it, and not all partners need be listed. For some assays here: Sequences can lack the tags named with a protein.

B1: ATP8A2 (protein, UniProt Q9NTI2 1-1188)
chain: MLNGAGLDKALKMSLPRRSRIRSSVGPVRSSLGYKKAEDEMSRATSVGDQLEAPARTIYLNQPHLNKFRDNQISTAKYSVLTFLPRFLYEQIRRAANAFFLFIALLQQIPDVSPTGRYTTLVPLIIILTIAGIKEIVEDFKRHKADNAVNKKKTIVLRNGMWHTIMWKEVAVGDIVKVVNGQYLPADVVLLSSSEPQAMCYVETANLDGETNLKIRQGLSHTADMQTREVLMKLSGTIECEGPNRHLYDFTGNLNLDGKSLVALGPDQILLRGTQLRNTQWVFGIVVYTGHDTKLMQNSTKAPLKRSNVEKVTNVQILVLFGILLVMALVSSAGALYWNRSHGEKNWYIKKMDTTSDNFGYNLLTFIILYNNLIPISLLVTLEVVKYTQALFINWDTDMYYIGNDTPAMARTSNLNEELGQVKYLFSDKTGTLTCNIMNFKKCSIAGVTYGHFPELAREPSSDDFCRMPPPCSDSCDFDDPRLLKNIEDRHPTAPCIQEFLTLLAVCHTVVPEKDGDNIIYQASSPDEAALVKGAKKLGFVFTARTPFSVIIEAMGQEQTFGILNVLEFSSDRKRMSVIVRTPSGRLRLYCKGADNVIFERLSKDSKYMEETLCHLEYFATEGLRTLCVAYADLSENEYEEWLKVYQEASTILKDRAQRLEECYEIIEKNLLLLGATAIEDRLQAGVPETIATLLKAEIKIWVLTGDKQETAINIGYSCRLVSQNMALILLKEDSLDATRAAITQHCTDLGNLLGKENDVALIIDGHTLKYALSFEVRRSFLDLALSCKAVICCRVSPLQKSEIVDVVKKRVKAITLAIGDGANDVGMIQTAHVGVGISGNEGMQATNNSDYAIAQFSYLEKLLLVHGAWSYNRVTKCILYCFYKNVVLYIIELWFAFVNGFSGQILFERWCIGLYNVIFTALPPFTLGIFERSCTQESMLRFPQLYKITQNGEGFNTKVFWGHCINALVHSLILFWFPMKALEHDTVLTSGHATDYLFVGNIVYTYVVVTVCLKAGLETTAWTKFSHLAVWGSMLTWLVFFGIYSTIWPTIPIAPDMRGQATMVLSSAHFWLGLFLVPTACLIEDVAWRAAKHTCKKTLLEEVQELETKSRVLGKAVLRDSNGKRLNERDRLIKRLGRKTPPTLFRGSSLQQGVPHGYAFSQEEHGAVSQEEVIRAYDTTKKKSRKK
With B1, the binding result (with WT HA–TMEM230 (human); in the assay with HA-TMEM230(Y29C) (human); in assay [1]) was “binds” each time.

B2: ATP8A1 (protein, UniProt Q9Y2Q0 1-1164)
chain: MPTMRRTVSEIRSRAEGYEKTDDVSEKTSLADQEEVRTIFINQPQLTKFCNNHVSTAKYNIITFLPRFLYSQFRRAANSFFLFIALLQQIPDVSPTGRYTTLVPLLFILAVAAIKEIIEDIKRHKADNAVNKKQTQVLRNGAWEIVHWEKVAVGEIVKVTNGEHLPADLISLSSSEPQAMCYIETSNLDGETNLKIRQGLPATSDIKDVDSLMRISGRIECESPNRHLYDFVGNIRLDGHGTVPLGADQILLRGAQLRNTQWVHGIVVYTGHDTKLMQNSTSPPLKLSNVERITNVQILILFCILIAMSLVCSVGSAIWNRRHSGKDWYLNLNYGGASNFGLNFLTFIILFNNLIPISLLVTLEVVKFTQAYFINWDLDMHYEPTDTAAMARTSNLNEELGQVKYIFSDKTGTLTCNVMQFKKCTIAGVAYGHVPEPEDYGCSPDEWQNSQFGDEKTFSDSSLLENLQNNHPTAPIICEFLTMMAVCHTAVPEREGDKIIYQAASPDEGALVRAAKQLNFVFTGRTPDSVIIDSLGQEERYELLNVLEFTSARKRMSVIVRTPSGKLRLYCKGADTVIYDRLAETSKYKEITLKHLEQFATEGLRTLCFAVAEISESDFQEWRAVYQRASTSVQNRLLKLEESYELIEKNLQLLGATAIEDKLQDQVPETIETLMKADIKIWILTGDKQETAINIGHSCKLLKKNMGMIVINEGSLDGTRETLSRHCTTLGDALRKENDFALIIDGKTLKYALTFGVRQYFLDLALSCKAVICCRVSPLQKSEVVEMVKKQVKVVTLAIGDGANDVSMIQTAHVGVGISGNEGLQAANSSDYSIAQFKYLKNLLMIHGAWNYNRVSKCILYCFYKNIVLYIIEIWFAFVNGFSGQILFERWCIGLYNVMFTAMPPLTLGIFERSCRKENMLKYPELYKTSQNALDFNTKVFWVHCLNGLFHSVILFWFPLKALQYGTAFGNGKTSDYLLLGNFVYTFVVITVCLKAGLETSYWTWFSHIAIWGSIALWVVFFGIYSSLWPAIPMAPDMSGEAAMLFSSGVFWMGLLFIPVASLLLDVVYKVIKRTAFKTLVDEVQELEAKSQDPGAVVLGKSLTERAQLLKNVFKKNHVNLYRSESLQQNLLHGYAFSQDENGIVSQSEVIRAYDTTKQRPDEW
In the case of B2, the binding entry (in the assay with WT HA–TMEM230 (human); with HA-TMEM230(Y29C) (human); in assay [1]) was “binds” in each case.

B3: ATP11B (protein, UniProt Q9Y2G3 1-1177)
chain: MWRWIRQQLGFDPPHQSDTRTIYVANRFPQNGLYTPQKFIDNRIISSKYTVWNFVPKNLFEQFRRVANFYFLIIFLVQLMIDTPTSPVTSGLPLFFVITVTAIKQGYEDWLRHNSDNEVNGAPVYVVRSGGLVKTRSKNIRVGDIVRIAKDEIFPADLVLLSSDRLDGSCHVTTASLDGETNLKTHVAVPETALLQTVANLDTLVAVIECQQPEADLYRFMGRMIITQQMEEIVRPLGPESLLLRGARLKNTKEIFGVAVYTGMETKMALNYKSKSQKRSAVEKSMNTFLIIYLVILISEAVISTILKYTWQAEEKWDEPWYNQKTEHQRNSSKILRFISDFLAFLVLYNFIIPISLYVTVEMQKFLGSFFIGWDLDLYHEESDQKAQVNTSDLNEELGQVEYVFTDKTGTLTENEMQFRECSINGMKYQEINGRLVPEGPTPDSSEGNLSYLSSLSHLNNLSHLTTSSSFRTSPENETELIKEHDLFFKAVSLCHTVQISNVQTDCTGDGPWQSNLAPSQLEYYASSPDEKALVEAAARIGIVFIGNSEETMEVKTLGKLERYKLLHILEFDSDRRRMSVIVQAPSGEKLLFAKGAESSILPKCIGGEIEKTRIHVDEFALKGLRTLCIAYRKFTSKEYEEIDKRIFEARTALQQREEKLAAVFQFIEKDLILLGATAVEDRLQDKVRETIEALRMAGIKVWVLTGDKHETAVSVSLSCGHFHRTMNILELINQKSDSECAEQLRQLARRITEDHVIQHGLVVDGTSLSLALREHEKLFMEVCRNCSAVLCCRMAPLQKAKVIRLIKISPEKPITLAVGDGANDVSMIQEAHVGIGIMGKEGRQAARNSDYAIARFKFLSKLLFVHGHFYYIRIATLVQYFFYKNVCFITPQFLYQFYCLFSQQTLYDSVYLTLYNICFTSLPILIYSLLEQHVDPHVLQNKPTLYRDISKNRLLSIKTFLYWTILGFSHAFIFFFGSYLLIGKDTSLLGNGQMFGNWTFGTLVFTVMVITVTVKMALETHFWTWINHLVTWGSIIFYFVFSLFYGGILWPFLGSQNMYFVFIQLLSSGSAWFAIILMVVTCLFLDIIKKVFDRHLHPTSTEKAQLTETNAGIKCLDSMCCFPEGEAACASVGRMLERVIGRCSPTHISRSWSASDPFYTNDRSILTLSTMDSSTC
Consider B3, for which the binding result (in the assay with WT HA–TMEM230 (human); with HA-TMEM230(Y29C) (human); in assay [1]) was “binds” each time.

B4: CLCN5 (protein, UniProt P51795 1-816)
chain: MAMWQGAMDNRGFQQGSFSSFQNSSSDEDLMDIPATAMDFSMRDDVPPLDREVGEDKSYNGGGIGSSNRIMDFLEEPIPGVGTYDDFNTIDWVREKSRDRDRHREITNKSKESTWALIHSVSDAFSGWLLMLLIGLLSGSLAGLIDISAHWMTDLKEGICTGGFWFNHEHCCWNSEHVTFEERDKCPEWNSWSQLIISTDEGAFAYIVNYFMYVLWALLFAFLAVSLVKVFAPYACGSGIPEIKTILSGFIIRGYLGKWTLVIKTITLVLAVSSGLSLGKEGPLVHVACCCGNILCHCFNKYRKNEAKRREVLSAAAAAGVSVAFGAPIGGVLFSLEEVSYYFPLKTLWRSFFAALVAAFTLRSINPFGNSRLVLFYVEFHTPWHLFELVPFILLGIFGGLWGALFIRTNIAWCRKRKTTQLGKYPVIEVLVVTAITAILAFPNEYTRMSTSELISELFNDCGLLDSSKLCDYENRFNTSKGGELPDRPAGVGVYSAMWQLALTLILKIVITIFTFGMKIPSGLFIPSMAVGAIAGRLLGVGMEQLAYYHQEWTVFNSWCSQGADCITPGLYAMVGAAACLGGVTRMTVSLVVIMFELTGGLEYIVPLMAAAMTSKWVADALGREGIYDAHIRLNGYPFLEAKEEFAHKTLAMDVMKPRRNDPLLTVLTQDSMTVEDVETIISETTYSGFPVVVSRESQRLVGFVLRRDLIISIENARKKQDGVVSTSIIYFTEHSPPLPPYTPPTLKLRNILDLSPFTVTDLTPMEIVVDIFRKLGLRQCLVTHNGRLLGIITKKDVLKHIAQMANQDPDSILFN
Regarding B4, in the assay with TMEM9–HA (human), the binding result was “binds”.

B5: TMEM30A (protein, UniProt Q9NV96 1-361)
chain: MAMNYNAKDEVDGGPPCAPGGTAKTRRPDNTAFKQQRLPAWQPILTAGTVLPIFFIIGLIFIPIGIGIFVTSNNIREIEIDYTGTEPSSPCNKCLSPDVTPCFCTINFTLEKSFEGNVFMYYGLSNFYQNHRRYVKSRDDSQLNGDSSALLNPSKECEPYRRNEDKPIAPCGAIANSMFNDTLELFLIGNDSYPIPIALKKKGIAWWTDKNVKFRNPPGGDNLEERFKGTTKPVNWLKPVYMLDSDPDNNGFINEDFIVWMRTAALPTFRKLYRLIERKSDLHPTLPAGRYSLNVTYNYPVHYFDGRKRMILSTISWMGGKNPFLGIAYIAVGSISFLLGVVLLVINHKYRNSSNTADITI
Regarding B5, the binding entry (with WT HA–TMEM230 (human); in the assay with HA-TMEM230(Y29C) (human); in assay [1]) was “binds” each time.

B6: TMEM9B (protein, UniProt Q9NQ34 34-198)
chain: AKNFEDVRCKCICPPYKENSGHIYNKNISQKDCDCLHVVEPMPVRGPDVEAYCLRCECKYEERSSVTIKVTIIIYLSILGLLLLYMVYLTLVEPILKRRLFGHAQLIQSDDDIGDHQPFANAHDVLARSRSRANVLNKVEYAQQRWKLQVQEQRKSVFDRHVVLS
Consider B6, for which the binding entry with TMEM9–HA (human) is given as “binds”.

For the origin of these results see article PMC12222028.
